B1: PKP2 (protein, UniProt Q99959 1-881, looked up)
Plakophilin-2: MAAPGAPAEYGYIRTVLGQQILGQLDSSSLALPSEAKLKLAGSSGRGGQTVKSLRIQEQVQQTLARKGRSSVGNGNLHRTSSVPEYVYNLHLVENDFVGGRSPVPKTYDMLKAGTTATYEGRWGRGTAQYSSQKSVEERSLRHPLRRLEISPDSSPERAHYTHSDYQYSQRSQAGHTLHHQESRRAALLVPPRYARSEIVGVSRAGTTSRQRHFDTYHRQYQHGSVSDTVFDSIPANPALLTYPRPGTSRSMGNLLEKENYLTAGLTVGQVRPLVPLQPVTQNRASRSSWHQSSFHSTRTLREAGPSVAVDSSGRRAHLTVGQAAAGGSGNLLTERSTFTDSQLGNADMEMTLERAVSMLEADHMLPSRISAAATFIQHECFQKSEARKRVNQLRGILKLLQLLKVQNEDVQRAVCGALRNLVFEDNDNKLEVAELNGVPRLLQVLKQTRDLETKKQITDHTVNLRSRNGWPGAVAHACNPSTLGGQGGRITRSGVRDQPDQHGLLWNLSSNDKLKNLMITEALLTLTENIIIPFSGWPEGDYPKANGLLDFDIFYNVTGCLRNMSSAGADGRKAMRRCDGLIDSLVHYVRGTIADYQPDDKATENCVCILHNLSYQLEAELPEKYSQNIYIQNRNIQTDNNKSIGCFGSRSRKVKEQYQDVPMPEEKSNPKGVEWLWHSIVIRMYLSLIAKSVRNYTQEASLGALQNLTAGSGPMPTSVAQTVVQKESGLQHTRKMLHVGDPSVKKTAISLLRNLSRNLSLQNEIAKETLPDLVSIIPDTVPSTDLLIETTASACYTLNNIIQNSYQNARDLLNTGGIQKIMAISAGDAYASNKASKAASVLLYSLWAHTELHHAYKKAQFKKTDFVNSRTAKAYHSLKD
B2: GOLT1B (protein, UniProt Q9Y3E0 1-138, looked up)
Vesicle transport protein …: MISLTDTQKIGMGLTGFGVFFLFFGMILFFDKALLAIGNVLFVAGLAFVIGLERTFRFFFQKHKMKATGFFLGGVFVVLIGWPLIGMIFEIYGFFLLFRGFFPVVVGFIRRVPVLGSLLNLPGIRSFVDKVGESNNMV
B3: MED16 (protein, UniProt Q9Y2X0 1-877, looked up)
Mediator of RNA polymerase II …: MCDLRRPAAGGMMDLAYVCEWEKWSKSTHCPSVPLACAWSCRNLIAFTMDLRSDDQDLTRMIHILDTEHPWDLHSIPSEHHEAITCLEWDQSGSRLLSADADGQIKCWSMADHLANSWESSVGSLVEGDPIVALSWLHNGVKLALHVEKSGASSFGEKFSRVKFSPSLTLFGGKPMEGWIAVTVSGLVTVSLLKPSGQVLTSTESLCRLRGRVALADIAFTGGGNIVVATADGSSASPVQFYKVCVSVVSEKCRIDTEILPSLFMRCTTDLNRKDKFPAITHLKFLARDMSEQVLLCASSQTSSIVECWSLRKEGLPVNNIFQQISPVVGDKQPTILKWRILSATNDLDRVSAVALPKLPISLTNTDLKVASDTQFYPGLGLALAFHDGSVHIVHRLSLQTMAVFYSSAAPRPVDEPAMKRPRTAGPAVHLKAMQLSWTSLALVGIDSHGKLSVLRLSPSMGHPLEVGLALRHLLFLLEYCMVTGYDWWDILLHVQPSMVQSLVEKLHEEYTRQTAALQQVLSTRILAMKASLCKLSPCTVTRVCDYHTKLFLIAISSTLKSLLRPHFLNTPDKSPGDRLTEICTKITDVDIDKVMINLKTEEFVLDMNTLQALQQLLQWVGDFVLYLLASLPNQGSLLRPGHSFLRDGTSLGMLRELMVVIRIWGLLKPSCLPVYTATSDTQDSMSLLFRLLTKLWICCRDEGPASEPDEALVDECCLLPSQLLIPSLDWLPASDGLVSRLQPKQPLRLQFGRAPTLPGSAATLQLDGLARAPGQPKIDHLRRLHLGACPTEECKACTRCGCVTMLKSPNRTTAVKQWEQRWIKNCLAVEGRGPDACVTSRASEEAPAFVQLGPQSTHHSPRTPRSLDHLHPEDRP
B4: TIMMDC1 (protein, UniProt Q9NPL8 1-285, looked up)
Complex I assembly factor …: MEVPPPAPRSFLCRALCLFPRVFAAEAVTADSEVLEERQKRLPYVPEPYYPESGWDRLRELFGKDEQQRISKDLANICKTAATAGIIGWVYGGIPAFIHAKQQYIEQSQAEIYHNRFDAVQSAHRAATRGFIRYGWRWGWRTAVFVTIFNTVNTSLNVYRNKDALSHFVIAGAVTGSLFRINVGLRGLVAGGIIGALLGTPVGGLLMAFQKYSGETVQERKQKDRKALHELKLEEWKGRLQVTEHLPEKIESSLQEDEPENDAKKIEALLNLPRNPSVIDKQDKD
B5: FASTKD5 (protein, UniProt Q7L8L6 28-764, looked up)
FAST kinase domain-containing …: VSYWNVSSTQHGGQDPPEHISLCHSAKKVKNICSTFSSRRILTTSSAHPGLEFSKTSSSKASTLQLGSPRATGVDEEDVEVFDSFENMRVFLQLRPEYRVHSYNASETSQLLSVSEGELILHKVRVNQNNLQAQVIVDYLCKLSSLPAEQHPVLLGSTSFALLCQLSVKKIQLFDTQDLINVLKAFVILGIPHSHSMLDVYETKCCHQVWEMNMDQLLLVADLWRYLGRKVPRFLNIFSSYLNLHWKDLSLSQLVHLIYVIGENRQVSQDLMQKLESLILKYIDLINLEEVGTICLGFFKSSTNLSEFVMRKIGDLACANIQHLSSRSLVNIVKMFRFTHVDHINFMKQIGEIAPQRIPSLGVQGVMHLTLYCSALRFLNEGVMNAVAASLPPRVAHCRSKDVAKILWSFGTLNYKPPNAEEFYSSLISEIHRKMPEFNQYPEHLPTCLLGLAFLEYFPVELIDFALSPGFVRLAQERTKFDLLKELYTLDGTVGIECPDYRGNRLSTHLQQEGSELLWYLAEKDMNSKPEFLETVFLLETMLGGPQYVKHHMILPHTRSSDLEVQLDVNLKPLPFNREATPAENVAKLRLEHVGVSLTDDLMNKLLKGKARGHFQGKTESEPGQQPMELENKAAVPLGGFLCNVADKSGAMEMAGLCPAACMQTPRMKLAVQFTNRNQYCYGSRDLLGLHNMKRRQLARLGYRVVELSYWEWLPLLKRTRLEKLAFLHEKVFTSAL
B6: GTF3C2 (protein, UniProt Q8WUA4 1-911, looked up)
General transcription factor …: MDTCGVGYVALGEAGPVGNMTVVDSPGQEVLNQLDVKTSSEMTSAEASVEMSLPTPLPGFEDSPDQRRLPPEQESLSRLEQPDLSSEMSKVSKPRASKPGRKRGGRTRKGPKRPQQPNPPSAPLVPGLLDQSNPLSTPMPKKRGRKSKAELLLLKLSKDLDRPESQSPKRPPEDFETPSGERPRRRAAQVALLYLQELAEELSTALPAPVSCPEGPKVSSPTKPKKIRQPAACPGGEEVDGAPRDEDFFLQVEAEDVEESEGPSESSSEPEPVVPRSTPRGSTSGKQKPHCRGMAPNGLPNHIMAPVWKCLHLTKDFREQKHSYWEFAEWIPLAWKWHLLSELEAAPYLPQEEKSPLFSVQREGLPEDGTLYRINRFSSITAHPERWDVSFFTGGPLWALDWCPVPEGAGASQYVALFSSPDMNETHPLSQLHSGPGLLQLWGLGTLQQESCPGNRAHFVYGIACDNGCIWDLKFCPSGAWELPGTPRKAPLLPRLGLLALACSDGKVLLFSLPHPEALLAQQPPDAVKPAIYKVQCVATLQVGSMQATDPSECGQCLSLAWMPTRPHQHLAAGYYNGMVVFWNLPTNSPLQRIRLSDGSLKLYPFQCFLAHDQAVRTLQWCKANSHFLVSAGSDRKIKFWDLRRPYEPINSIKRFLSTELAWLLPYNGVTVAQDNCYASYGLCGIHYIDAGYLGFKAYFTAPRKGTVWSLSGSDWLGTIAAGDISGELIAAILPDMALNPINVKRPVERRFPIYKADLIPYQDSPEGPDHSSASSGVPNPPKARTYTETVNHHYLLFQDTDLGSFHDLLRREPMLRMQEGEGHSQLCLDRLQLEAIHKVRFSPNLDSYGWLVSGGQSGLVRIHFVRGLASPLGHRMQLESRAHFNAMFQPSSPTRRPGFSPTSHRLLPTP
B7: GSTK1 (protein, UniProt Q9Y2Q3 1-226, looked up)
Glutathione S-transferase …: MGPLPRTVELFYDVLSPYSWLGFEILCRYQNIWNINLQLRPSLITGIMKDSGNKPPGLLPRKGLYMANDLKLLRHHLQIPIHFPKDFLSVMLEKGSLSAMRFLTAVNLEHPEMLEKASRELWMRVWSRNEDITEPQSILAAAEKAGMSAEQAQGLLEKIATPKVKNQLKETTEAACRYGAFGLPITVAHVDGQTHMLFGSDRMELLAHLLGEKWMGPIPPAVNARL
B8: ACAD9 (protein, UniProt Q9H845 38-621, looked up)
Complex I assembly factor …: AFAKELFLGKIKKKEVFPFPEVSQDELNEINQFLGPVEKFFTEEVDSRKIDQEGKIPDETLEKLKSLGLFGLQVPEEYGGLGFSNTMYSRLGEIISMDGSITVTLAAHQAIGLKGIILAGTEEQKAKYLPKLASGEHIAAFCLTEPASGSDAASIRSRATLSEDKKHYILNGSKVWITNGGLANIFTVFAKTEVVDSDGSVKDKITAFIVERDFGGVTNGKPEDKLGIRGSNTCEVHFENTKIPVENILGEVGDGFKVAMNILNSGRFSMGSVVAGLLKRLIEMTAEYACTRKQFNKRLSEFGLIQEKFALMAQKAYVMESMTYLTAGMLDQPGFPDCSIEAAMVKVFSSEAAWQCVSEALQILGGLGYTRDYPYERILRDTRILLIFEGTNEILRMYIALTGLQHAGRILTTRIHELKQAKVSTVMDTVGRRLRDSLGRTVDLGLTGNHGVVHPSLADSANKFEENTYCFGRTVETLLLRFGKTIMEEQLVLKRVANILINLYGMTAVLSRASRSIRIGLRNHDHEVLLANTFCVEAYLQNLFSLSQLDKYAPENLDEQIKKVSQQILEKRAYICAHPLDRTC
B9: B3GAT3 (protein, UniProt O94766 1-335, looked up)
Galactosylgalactosylxylosylpro …: MKLKLKNVFLAYFLVSIAGLLYALVQLGQPCDCLPPLRAAAEQLRQKDLRISQLQAELRRPPPAPAQPPEPEALPTIYVVTPTYARLVQKAELVRLSQTLSLVPRLHWLLVEDAEGPTPLVSGLLAASGLLFTHLVVLTPKAQRLREGEPGWVHPRGVEQRNKALDWLRGRGGAVGGEKDPPPPGTQGVVYFADDDNTYSRELFEEMRWTRGVSVWPVGLVGGLRFEGPQVQDGRVVGFHTAWEPSRPFPVDMAGFAVALPLLLDKPNAQFDSTAPRGHLESSLLSHLVDPKDLEPRAANCTRVLVWHTRTEKPKMKQEEQLQRQGRGSDPAIEV

tested on: BAF complex subunits and histone proteins; experiment: Mass spectrometry proteomics of purified HA-SS18 WT and HA-SS18-SSX1 complexes (Tables 5A-5E); set-up: species or system human; conditions: HA-SS18SSX1_NE_peptides: protein co-purified with HA-SS18-SSX1 BAF complexes from soluble nuclear extract (NE), HEK-293T cells

Total (peptides), 2:
B1, B2, B3

Total (peptides), 1:
B4, B5, B6, B7, B8, B9

Unique (peptides), 1:
B1, B2, B3, B4, B5, B6, B7, B8, B9

same assay, conditions: HA-SS18WT_NE_peptides: HA-SS18 WT complexes purified from nuclear extract (NE), HEK-293T; label = protein identified (Gene Symbol)

Total (peptides), 3:
B8

Unique (peptides), 3:
B8

same assay, conditions: HA-SS18WT_NE_peptides: proteins co-purified with HA-SS18 WT from nuclear extract (NE), HEK-293T

Total (peptides), 1:
B5, B7

Unique (peptides), 1:
B5, B7

Source: patent US20250283871A1, “COMPOSITIONS AND METHODS FOR MODULATING THE INTERACTION BETWEEN SS18-SSX FUSION ONCOPROTEIN AND NUCLEOSOMES” (Dana-Farber Cancer Institute, Inc., priority 2020, published 2025)
